Test results: patent publication US20040081637A1
These are yes or no findings as the source states them, for the method shown. Some results given as binding are weak or reduced against the parent protein; the word gives no strength.

Protein sequences, listed by entry. Tags and fused reporters are not part of them. Residues count along the entry.
UniProt P78310, residues 20-365: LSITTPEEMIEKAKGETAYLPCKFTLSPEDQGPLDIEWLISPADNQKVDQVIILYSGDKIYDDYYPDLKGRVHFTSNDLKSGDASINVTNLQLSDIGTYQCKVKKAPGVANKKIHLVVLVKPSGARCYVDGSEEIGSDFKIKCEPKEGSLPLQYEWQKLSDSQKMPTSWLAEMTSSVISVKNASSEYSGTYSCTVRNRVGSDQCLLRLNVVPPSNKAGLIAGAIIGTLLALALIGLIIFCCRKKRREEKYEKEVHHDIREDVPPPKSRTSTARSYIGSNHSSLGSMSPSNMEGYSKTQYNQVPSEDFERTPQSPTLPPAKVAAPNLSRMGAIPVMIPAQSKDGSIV

Target: coxsackieadenovirus receptor (CAR) on 911 cells (UniProt P78310)
Test: FACS blocking assay on 911 cells expressing CAR

B1: recombinant adenovirus type 5 fiber-knob protein (protein)
chain: TGAITVGNKNNDKLTLWTTPAPSPNCRLNAEKDAKLTLVLTKCGSQILATVSVLAVKGSLAPISGTVQSAHLIIRFDENGVLLNNSFLDPEYWNFRNGDLTEGTAYTNAVGFMPNLSAYPKSHGKTAKSNIVSQVYLNGDKTKPVTLTITLNGTQETGDTTPSAYSMSFSWDWSGHNYINEIFATSSYTFSYIAQE
For B1, the binding was “binds”.
